# In PMC10646090:
# The chains behind the UniProt entries cited, without tags or fusion partners.
# UniProt Q00987: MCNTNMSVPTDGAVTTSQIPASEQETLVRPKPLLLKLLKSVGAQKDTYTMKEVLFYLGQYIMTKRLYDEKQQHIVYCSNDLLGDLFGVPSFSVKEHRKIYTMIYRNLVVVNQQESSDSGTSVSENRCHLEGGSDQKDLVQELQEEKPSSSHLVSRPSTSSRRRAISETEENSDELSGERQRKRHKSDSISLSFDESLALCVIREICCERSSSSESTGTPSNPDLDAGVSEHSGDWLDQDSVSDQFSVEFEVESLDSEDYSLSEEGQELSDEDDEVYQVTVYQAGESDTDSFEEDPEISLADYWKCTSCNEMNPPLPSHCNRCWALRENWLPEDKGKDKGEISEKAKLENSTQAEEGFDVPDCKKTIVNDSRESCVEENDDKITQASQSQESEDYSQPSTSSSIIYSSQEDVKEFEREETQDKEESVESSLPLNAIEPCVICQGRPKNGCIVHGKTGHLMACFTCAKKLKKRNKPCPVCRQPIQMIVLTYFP
# Results are given in words; binding and its absence hold for the method and conditions named. In cells and extracts the contact can be indirect. Some entries that bind do so weakly or less than the wild type. For some of these results: Where a sequence is shown, tags or fusion partners need not be part of it.
# T1: LASS2 (endogenous, human hepatoma cells) (human (endogenous in HepG2 and HCCLM3)) (UniProt Q96G23)
# T1 sequence: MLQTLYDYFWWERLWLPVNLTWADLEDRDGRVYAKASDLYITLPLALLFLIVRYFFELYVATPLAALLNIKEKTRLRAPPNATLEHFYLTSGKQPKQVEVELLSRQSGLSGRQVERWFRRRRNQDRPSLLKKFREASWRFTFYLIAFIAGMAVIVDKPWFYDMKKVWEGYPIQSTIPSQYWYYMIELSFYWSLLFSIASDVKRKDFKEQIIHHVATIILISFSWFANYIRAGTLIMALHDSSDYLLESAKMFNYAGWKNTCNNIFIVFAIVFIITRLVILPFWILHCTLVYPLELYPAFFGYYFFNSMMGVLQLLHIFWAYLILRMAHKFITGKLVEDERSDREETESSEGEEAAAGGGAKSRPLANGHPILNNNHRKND
# T2: human LASS2-GFP (from the recombinant human adenovirus vector overexpressing LASS2, Adv-hLASS2-GFP) (human) (UniProt Q96G23)
# T2 sequence: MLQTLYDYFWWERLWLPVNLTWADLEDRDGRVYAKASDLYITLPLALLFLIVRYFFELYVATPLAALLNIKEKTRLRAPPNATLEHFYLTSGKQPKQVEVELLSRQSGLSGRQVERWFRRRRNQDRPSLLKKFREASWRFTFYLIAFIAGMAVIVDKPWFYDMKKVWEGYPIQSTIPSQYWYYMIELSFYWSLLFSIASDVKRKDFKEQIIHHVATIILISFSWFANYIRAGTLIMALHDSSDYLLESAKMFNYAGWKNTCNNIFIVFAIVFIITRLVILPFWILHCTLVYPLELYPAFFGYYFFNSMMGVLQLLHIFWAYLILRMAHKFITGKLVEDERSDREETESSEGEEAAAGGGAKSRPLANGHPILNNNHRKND
# What was measured:
# [1] = biological target: T1, LASS2 (endogenous, human hepatoma cells) (human (endogenous in HepG2 and HCCLM3)); experiment: proximity ligation; Duolink PLA in situ on fixed, permeabilised HepG2 (WT p53) and HCCLM3 (mutant p53) cells; anti-LASS2 with anti-MDM2 or anti-MDMX overnight at 4 °C; confocal microscopy
# [2] = biological target: T2, human LASS2-GFP (from the recombinant human adenovirus vector overexpressing LASS2, Adv-hLASS2-GFP) (human); experiment: co-IP; HepG2, HCCLM3 and HuCCT1 cells transiently transfected with Adv-GFP or Adv-hLASS2-GFP; GFP Nanoselector beads for immunoprecipitation; western blot with anti-GFP, anti-LASS2, anti-MDM2 and anti-MDMX
binding [1],binding [2],Molecule
binds,binds,"MDM2 (endogenous, human hepatoma cells) (from UniProt Q00987 1-491)"
binds,binds,"MDMX (endogenous, human hepatoma cells) (protein, UniProt O15151 1-490) MTSFSTSAQCSTSDSACRISPGQINQVRPKLPLLKILHAAGAQGEMFTVKEVMHYLGQYIMVKQLYDQQEQHMVYCGGDLLGELLGRQSFSVKDPSPLYDMLRKNLVTLATATTDAAQTLALAQDHSMDIPSQDQLKQSAEESSTSRKRTTEDDIPTLPTSEHKCIHSREDEDLIENLAQDETSRLDLGFEEWDVAGLPWWFLGNLRSNYTPRSNGSTDLQTNQDVGTAIVSDTTDDLWFLNESVSEQLGVGIKVEAADTEQTSEEVGKVSDKKVIEVGKNDDLEDSKSLSDDTDVEVTSEDEWQCTECKKFNSPSKRYCFRCWALRKDWYSDCSKLTHSLSTSDITAIPEKENEGNDVPDCRRTISAPVVRPKDAYIKKENSKLFDPCNSVEFLDLAHSSESQETISSMGEQLDNLSEQRTDTENMEDCQNLLKPCSLCEKRPRDGNIIHGRTGHLVTCFHCARRLKKAGASCPICKKEIQLVIKVFIA"
